Reference: patent publication US20260116967A1 (CSPC MEGALITH BIOPHARMACEUTICAL, published 2026)
No constants are given. Whether binding was seen depends on the method and setting. Some binding calls cover weakened binding; strength is not graded here.

Each binder was assayed against recombinant cynomolgus monkey (Cyno) PVRIG protein (cynomolgus monkey) (assay: ELISA, Cyno-PVRIG protein coated).

binding	Binder
binds	Hab21F10C10.12 (antibody, V domains shown, Humanized antibody; also called Hab21F10C10-VH.1d + Hab21F10C10-VL.1c) VH: QVQLVQSGAEVKKPGASVKVSCKASGYTFINNFIEWVRQAPGQGLEWMGVINPGSGDANYAQKFQGRVTMTRDTSISTAYMELSRLRSDDTAVYYCASHWLAYWGQGTTVTVSS VL: EIVMTQSPPTLSLSPGERVTLSCRSSQSLLSSGNQKNYLSWYQQKPGQAPRLLIYGASTRETGIPARFSGSGSGTDFTLTISSLQPEDFAVYYCQNGHFYPYTFGGGTKLEIK
binds	Hab1B10E8.6 (antibody, V domains shown, Humanized antibody; also called Hab1B10E8-VH.1b + Hab1B10E8-VL.1b) VH: QVQLVQSGAEVKKPGASVKVSCKASGYSFPSYWMHWVRQAPGQGLEWIGEINPSNGLTNYNEQFRNRVTMTVDTSTSTVYMELSSLRSEDTAVYYCARHHGSTYYALDSWGQGTLVTVSS VL: DIVMTQSPDSLAVSLGERATINCKSSQSLLNSINQKNFLAWYQQKPGQPPKLLVYFASTRESGVPDRFSGSGSGTDFTLTISSLQAEDVAVYFCQQHYSTPPTFGGGTKLEIK
binds	Hab43F7C9.12 (antibody, V domains shown, Humanized antibody; also called Hab43F7C9-VH.1d + Hab43F7C9-VL.1c; 43H7C9.12) VH: QVQLQESGPGLVKPSETLSLTCTVSGYSISSDYAWNWIRQPPGKGLEWIGYIRYNGNTNYNPSLKSRVTISVDTSKNQFSLKLSSVTAADTAVYYCAIIYYDYDGFVYWGQGTTVTVSS VL: DIQMTQSPSSLSASVGDRVTITCRASQNVYENLHWYQQKPGKAPKLLIKFASDSISGVPSRFSGSGSGTDFTLTISSLQPEDFATYYCLQLYSTPYTFGGGTKLEIK
